Laboratory results: patent US20220074941A1, “HSP90 COMBINATION THERAPY” (Sloan-Kettering Institute for Cancer Research, priority 2011, published 2022)

Test system: Hsp90 complexes in K562 cell extract
Assay: Nano-LC-MS/MS of PU-beads pull-downs
Assay type: binding
Settings: for Matched Peptides by Fraction JA05: Run1, gel size cut 60-80; for Matched Peptides by Fraction JA12: Run2, gel size cut 60-80; for MAXIMUM matched peptides: maximum over fractions JA01-JA14; for Total fmol: protein isolated in PU-beads pull-downs, Waters Xevo QTof MS
Description: Protein cargo isolated from cell lysate with PU-beads or control-beads was subjected to proteomic analysis by nano liquid chromatography coupled to tandem mass spectrometry (nano LC-MS/MS). Initial protein identification was performed using the Mascot search engine, and was further evaluated using Scaffold Proteome Software (Tables 5a-d).
Lysates prepared as mentioned above were first pre-cleaned by incubation with control beads overnight at 4° C. […] Beads were washed with lysis buffer, proteins eluted by boiling in 2% SDS, separated on a denaturing gel and Coomassie stained according to manufacturer's procedure (Biorad). […] Analyses of the batch purified pools were done using a QSTAR-Elite hybrid quadrupole time-of-flight mass spectrometer (QTof MS) (AB/MDS Sciex), equipped with a nano spray ion source. Peptide mixtures (in 20 μL) are loaded onto a trapping guard column (0.3×5-mm PepMap C18 100 cartridge from LC Packings) using an Eksigent nano MDLC system (Eksigent Technologies, Inc) at a flow rate of 20 μL/min. […] Electrospray ionization (ESI) needle voltage was set at about 1800 V. The mass analyzer is operated in automatic, data-dependent MS/MS acquisition mode, with the threshold set to 10 counts per second of doubly or triply charged precursor ions selected for fragmentation scans. Survey scans of 0.25 sec are recorded from 400 to 1800 amu; up to 3 MS/MS scans are then collected sequentially for the selected precursor ions, recording from 100 to 1800 amu. The collision energy is automatically adjusted in accordance with the m/z value of the precursor ions selected for MS/MS. Selected precursor ions are excluded from repeated selection for 60 sec after the end of the corresponding fragmentation duty cycle. […] One missed tryptic cleavage site was allowed, precursor ion mass tolerance=0.4 Da fragment ion mass tolerance=0.4 Da, protein modifications were allowed for Met-oxide, Cys-acrylamide and N-terminal acetylation. MudPit scoring was typically applied with ‘require bold red’ activated, and using significance threshold score p<0.05. Unique peptide counts (or ‘spectral counts’) and percent sequence coverages for all identified proteins were exported to Scaffold Proteome Software (version 2_06_01, www.proteomesoftware.com) for further bioinformatic analysis (Table 5a). Using output from Mascot, Scaffold validates, organizes, and interprets mass spectrometry data, allowing more easily to manage large amounts of data, to compare samples, and to search for protein modifications.

Molecule | Matched Peptides by Fraction JA05 (PU-beads pull-down) | Matched Peptides by Fraction JA12 (PU-beads pull-down) | MAXIMUM matched peptides (PU-beads pull-down) | Total fmol | Matched Peptides by Fraction JA04 (PU-beads pull-down, Run1, gel size cut 80-110) | Matched Peptides by Fraction JA06 (PU-beads pull-down, Run1, gel size cut 40-60) | Matched Peptides by Fraction JA13 (PU-beads pull-down, Run2, gel size cut 40-60)
Serine/threonine-protein phosphatase 2A 65 kDa regulatory subunit A beta isoform (protein, UniProt P30154 2-601, looked up) Serine/threonine-protein …: AGASELGTGPGAAGGDGDDSLYPIAVLIDELRNEDVQLRLNSIKKLSTIALALGVERTRSELLPFLTDTIYDEDEVLLALAEQLGNFTGLVGGPDFAHCLLPPLENLATVEETVVRDKAVESLRQISQEHTPVALEAYFVPLVKRLASGDWFTSRTSACGLFSVCYPRASNAVKAEIRQQFRSLCSDDTPMVRRAAASKLGEFAKVLELDSVKSEIVPLFTSLASDEQDSVRLLAVEACVSIAQLLSQDDLETLVMPTLRQAAEDKSWRVRYMVADRFSELQKAMGPKITLNDLIPAFQNLLKDCEAEVRAAAAHKVKELGENLPIEDRETIIMNQILPYIKELVSDTNQHVKSALASVIMGLSTILGKENTIEHLLPLFLAQLKDECPDVRLNIISNLDCVNEVIGIRQLSQSLLPAIVELAEDAKWRVRLAIIEYMPLLAGQLGVEFFDEKLNSLCMAWLVDHVYAIREAATNNLMKLVQKFGTEWAQNTIVPKVLVMANDPNYLHRMTTLFCINALSEACGQEITTKQMLPIVLKMAGDQVANVRFNVAKSLQKIGPILDTNALQGEVKPVLQKLGQDEDMDVKYFAQEAISVLALA | 34 | 37 | 37 | 5.3180 fmol |  |  | 
Plasminogen activator inhibitor 1 RNA-binding protein; SERBP1 (protein, UniProt Q8NC51 2-408, looked up) SERPINE1 mRNA-binding protein …: PGHLQEGFGCVVTNRFDQLFDDESDPFEVLKAAENKKKEAGGGGVGGPGAKSAAQAAAQTNSNAAGKQLRKESQKDRKNPLPPSVGVVDKKEETQPPVALKKEGIRRVGRRPDQQLQGEGKIIDRRPERRPPRERRFEKPLEEKGEGGEFSVDRPIIDRPIRGRGGLGRGRGGRGRGMGRGDGFDSRGKREFDRHSGSDRSSFSHYSGLKHEDKRGGSGSHNWGTVKDELTESPKYIQKQISYNYSDLDQSNVTEETPEGEEHHPVADTENKENEVEEVKEEGPKEMTLDEWKAIQNKDRAKVEFNIRKPNEGADGQWKKGFVLHKSKSEEAHAEDSVMDHHFRKPANDITSQLEINFGDLGRPGRGGRGGRGGRGRGGRPNRGSRTDKSSASAPDVDDPEAFPALA | 17 | 20 | 20 | 19.2385 fmol |  |  | 
Metastasis-associated protein MTA2 (protein, UniProt O94776 1-668, looked up) Metastasis-associated protein …: MAANMYRVGDYVYFENSSSNPYLVRRIEELNKTANGNVEAKVVCLFRRRDISSSLNSLADSNAREFEEESKQPGVSEQQRHQLKHRELFLSRQFESLPATHIRGKCSVTLLNETDILSQYLEKEDCFFYSLVFDPVQKTLLADQGEIRVGCKYQAEIPDRLVEGESDNRNQQKMEMKVWDPDNPLTDRQIDQFLVVARAVGTFARALDCSSSIRQPSLHMSAAAASRDITLFHAMDTLQRNGYDLAKAMSTLVPQGGPVLCRDEMEEWSASEAMLFEEALEKYGKDFNDIRQDFLPWKSLASIVQFYYMWKTTDRYIQQKRLKAAEADSKLKQVYIPTYTKPNPNQIISVGSKPGMNGAGFQKGLTCESCHTTQSAQWYAWGPPNMQCRLCASCWIYWKKYGGLKTPTQLEGATRGTTEPHSRGHLSRPEAQSLSPYTTSANRAKLLAKNRQTFLLQTTKLTRLARRMCRDLLQPRRAARRPYAPINANAIKAECSIRLPKAAKTPLKIHPLVRLPLATIVKDLVAQAPLKPKTPRGTKTPINRNQLSQNRGLGGIMVKRAYETMAGAGVPFSANGRPLASGIRSSSQPAAKRQKLNPADAPNPVVFVATKDTRALRKALTHLEMRRAARRPNLPLKVKPTLIAVRPPVPLPAPSHPASTNEPIVLED | 26 | 24 | 26 | 17.8585 fmol |  |  | 
Transforming growth factor-beta receptor-associated protein 1 (protein, UniProt Q8WUH2 1-860, looked up) Transforming growth …: MMSIKAFTLVSAVERELLMGDKERVNIECVECCGRDLYVGTNDCFVYHFLLEERPVPAGPATFTATKQLQRHLGFKKPVNELRAASALNRLLVLCDNSISLVNMLNLEPVPSGARIKGAATFALNENPVSGDPFCVEVCIISVKRRTIQMFLVYEDRVQIVKEVSTAEQPLAVAVDGHFLCLALTTQYIIHNYSTGVSQDLFPYCSEERPPIVKRIGRQEFLLAGPGGLGMFATVAGISQRAPVHWSENVIGAAVSFPYVIALDDEFITVHSMLDQQQKQTLPFKEGHILQDFEGRVIVATSKGVYILVPLPLEKQIQDLLASRRVEEALVLAKGARRNIPKEKFQVMYRRILQQAGFIQFAQLQFLEAKELFRSGQLDVRELISLYPFLLPTSSSFTRSHPPLHEYADLNQLTQGDQEKMAKCKRFLMSYLNEVRSTEVANGYKEDIDTALLKLYAEADHDSLLDLLVTENFCLLTDSAAWLEKHKKYFALGLLYHYNNQDAAAVQLWVNIVNGDVQDSTRSDLYEYIVDFLTYCLDEELVWAYADWVLQKSEEVGVQVFTKRPLDEQQKNSFNPDDIINCLKKYPKALVKYLEHLVIDKRLQKEEYHTHLAVLYLEEVLLQRASASGKGAEATETQAKLRRLLQKSDLYRVHFLLERLQGAGLPMESAILHGKLGEHEKALHILVHELQDFAAAEDYCLWCSEGRDPPHRQQLFHTLLAIYLHAGPTAHELAVAAVDLLNRHATEFDAAQVLQMLPDTWSVQLLCPFLMGAMRDSIHARRTMQVALGLARSENLIYTYDKMKLKGSSIQLSDKKLCQICQNPFCEPVFVRYPNGGLVHTHCAASRHTNPSSSSPGTRT |  |  | 15 | 1.7989 fmol | 15 |  | 
Vascular endothelial growth factor receptor 1; VEGFR-1 (protein, UniProt P17948 27-1338, looked up) Vascular endothelial growth …: SKLKDPELSLKGTQHIMQAGQTLHLQCRGEAAHKWSLPEMVSKESERLSITKSACGRNGKQFCSTLTLNTAQANHTGFYSCKYLAVPTSKKKETESAIYIFISDTGRPFVEMYSEIPEIIHMTEGRELVIPCRVTSPNITVTLKKFPLDTLIPDGKRIIWDSRKGFIISNATYKEIGLLTCEATVNGHLYKTNYLTHRQTNTIIDVQISTPRPVKLLRGHTLVLNCTATTPLNTRVQMTWSYPDEKNKRASVRRRIDQSNSHANIFYSVLTIDKMQNKDKGLYTCRVRSGPSFKSVNTSVHIYDKAFITVKHRKQQVLETVAGKRSYRLSMKVKAFPSPEVVWLKDGLPATEKSARYLTRGYSLIIKDVTEEDAGNYTILLSIKQSNVFKNLTATLIVNVKPQIYEKAVSSFPDPALYPLGSRQILTCTAYGIPQPTIKWFWHPCNHNHSEARCDFCSNNEESFILDADSNMGNRIESITQRMAIIEGKNKMASTLVVADSRISGIYICIASNKVGTVGRNISFYITDVPNGFHVNLEKMPTEGEDLKLSCTVNKFLYRDVTWILLRTVNNRTMHYSISKQKMAITKEHSITLNLTIMNVSLQDSGTYACRARNVYTGEEILQKKEITIRDQEAPYLLRNLSDHTVAISSSTTLDCHANGVPEPQITWFKNNHKIQQEPGIILGPGSSTLFIERVTEEDEGVYHCKATNQKGSVESSAYLTVQGTSDKSNLELITLTCTCVAATLFWLLLTLFIRKMKRSSSEIKTDYLSIIMDPDEVPLDEQCERLPYDASKWEFARERLKLGKSLGRGAFGKVVQASAFGIKKSPTCRTVAVKMLKEGATASEYKALMTELKILTHIGHHLNVVNLLGACTKQGGPLMVIVEYCKYGNLSNYLKSKRDLFFLNKDAALHMEPKKEKMEPGLEQGKKPRLDSVTSSESFASSGFQEDKSLSDVEEEEDSDGFYKEPITMEDLISYSFQVARGMEFLSSRKCIHRDLAARNILLSENNVVKICDFGLARDIYKNPDYVRKGDTRLPLKWMAPESIFDKIYSTKSDVWSYGVLLWEIFSLGGSPYPGVQMDEDFCSRLREGMRMRAPEYSTPEIYQIMLDCWHRDPKERPRFAELVEKLGDLLQANVQQDGKDYIPINAILTGNSGFTYSTPAFSEDFFKESISAPKFNSGSSDDVRYVNAFKFMSLERIKTFEELLPNATSMFDDYQGDSSTLLASPMLKRFTWTDSKPKASLKIDLRVTSKSKESGLSDVSRPSFCHSSCGHVSEGKRRFTYDHAELERKIACCSPPPDYNSVVLYSTPPI |  |  | 23 | 2.0434 fmol |  | 23 | 14
